# From PubChem BioAssay AID1259415 (National Center for Advancing Translational Sciences (NCATS), 2018)
# Values joined by “and” are separate entries in the source; they are usually repeats but may differ in a detail not shown here. Equal values may be shown once. The campaign covered roughly 410,000 compounds. About 18,000 (4.4%) were called active. The inconclusive results got no clear call from the source; some entries with a clear call stand among them for comparison. No stated cut-off is given here; in the data, active means activity change below about -60%; inconclusive means no clear call, values can overlap the other calls; inactive means above about -39%.
# Test: qHTS Assay for inhibitors of the human cytomegalovirus (HCMV)
# Details: HFF cells, HCMV-luciferase reporter, 72 h; at 57.5 µM; stronger effect = lower value
# How it was run: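 Steps: HFFs plated, 16 h 37C; compounds added; HCMV-luciferase added to MOI 1 PFU/cell; 72 h 37C; OneGlo reagent, 5 min room temperature; luminescence read, normalized to controls.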
# On the % scale 0 is the no-effect control and ±100 the full control effect.
row,Structure (SMILES),"activity change, negative = inhibition"
1,CC(C)(C)c1ccc(C(=O)CCCSC2=C(C#N)C(c3ccco3)C3=C(CCCC3=O)N2)cc1 (centres undefined),inconclusive: -45.9%
2,COCCCNC(=O)c1cn(Cc2c(F)cccc2Cl)nn1,active: -89.9%
3,O=C(CSc1ncc(-c2ccccc2)[nH]1)Nc1ccccc1,inconclusive: -46.9% and inconclusive: -58.6%
4,COc1ccc(S(=O)(=O)Nc2cc3[nH]c(=O)oc3cc2C)cc1,inconclusive: -52%
5,CCN1C(=O)c2ccccc2S(=O)(=O)c2ccc(C(=O)NCc3ccccc3)cc21,inconclusive: -51.2%
6,O=C(Nc1ccc2c(c1)OCO2)c1csc([C@H]2C[C@H](O)[C@@H](CO)O2)n1,active: -97.5%
7,CCCCOc1ccc(C(=O)Nc2ccc3c(c2)CCCN3C(=O)c2cccs2)cc1,active: -87.4%
8,O=C(CSc1nc2ccccc2[nH]1)Nc1ccccc1F,active: -99.6%
9,COc1ccc(C)cc1NC(=O)CN1CCN(S(=O)(=O)c2ccc3ccccc3c2)CC1,inconclusive: -52%
10,Cc1ccc(N(C)C(=O)c2sc3nc4n(c(=O)c3c2C)CCCC4)cc1C,inconclusive: -48.7%
11,COCCn1c(=S)[nH]c2sc3c(c2c1=O)CCC(C)C3 (centres undefined),inactive: -0.853%
12,O=C(NCc1ccccc1CN1CCCC1)c1ccc(Cl)c(S(=O)(=O)N2CCCC2)c1,inactive: -21.9%
13,CN(C)CC[C@@H](c1ccc(Cl)cc1)c1ccccn1,inconclusive: -46.3%
14,Cc1cccc(C)c1NC(=O)C(c1cccs1)N(Cc1ccco1)C(=O)Cn1nnc2ccccc21 (centres undefined),inconclusive: -50.7%
15,Cc1noc(C(=O)NCc2ccccc2)c1Cl,inactive: -31%
16,CN(Cc1ccccc1)S(=O)(=O)c1cccc2cccnc12,inconclusive: -53.2%
17,CCN1CCCC1CNCc1ccc(OCc2ccc(Cl)nc2)c(OC)c1 (centres undefined),inconclusive: -46.4%
18,COc1cc(OC)cc(C(=O)NNC(=S)Nc2ccc(S(N)(=O)=O)cc2)c1,inconclusive: -56.4%
19,CCC(=NCc1ccccc1)c1c(C(F)(F)F)[nH]n(-c2nc3ccccc3s2)c1=O,inconclusive: -56.6%
20,CN(C)S(=O)(=O)c1ccc(C(=O)NCC(C)(C)N2CCOCC2)cc1,inactive: -39.4%
21,CCCc1[nH]n(-c2ccc([N+](=O)[O-])cc2)c(=O)c1C(C)=NCc1ccncc1,inconclusive: -42.7%
22,O=C(Nc1ccccn1)c1ccc(-c2ccccc2)cc1,active: -78.3%
23,CCCCOc1ccccc1C1CC(=O)Nc2ccc3ccccc3c21 (centres undefined),active: -91.6%
24,O=C(NCCCN1CCOCC1)c1ccc(CSCc2cccc(Cl)c2)o1,inactive: -23.7%
25,O=C(NNc1ccccc1Cl)C(O)(c1cccc(C(F)(F)F)c1)c1cccc(C(F)(F)F)c1,active: -100%
26,CCN1C[C@@H]2[C@@H]3C(=O)N(Cc4ccccc4)C(=O)[C@@H]3[C@](CC)(C1=O)N2C(=O)c1ccc(C(C)(C)C)cc1,inconclusive: -56.7%
27,CCOC(=O)c1ccc(N2C(=O)c3n[nH]c(-c4ccco4)c3C2c2ccc(C(=O)OC)cc2)cc1 (centres undefined),active: -80.1%

row,Structure (SMILES),"activity change, negative = inhibition"
1,Cc1ccc(S(=O)(=O)N2CCN(C(=O)c3ccc(N4CCC(C)CC4)c([N+](=O)[O-])c3)CC2)cc1,inconclusive: -43.7%
2,CCN(CC)CCNC(=O)c1ccc(NC(=O)c2cn(-c3ccc(F)cc3)nc2-c2cccc(OC)c2)cc1,active: -65.7%
3,O=C(O)c1ccccc1N/C=C\[N+](=O)[O-],inactive: -6.5%
4,O=S(=O)(c1ccccc1)c1cnn(-c2ccccc2)c1-c1ccc(F)cc1,active: -61.5%
5,Cc1cccn2c(=O)c3cc(C(=O)NCCN4CCOCC4)c(=N)n(CCc4ccccc4)c3nc12,active: -84.7%
6,Cc1cc(C)cc(NC(=S)Nc2ccc3cn[nH]c3c2)c1,inconclusive: -42.1%
7,Cc1cnc(NC(=O)C2COc3ccccc3O2)s1 (centres undefined),inconclusive: -51.1%
8,O=C1CCN(Cc2ccccc2)C=C1C(=O)c1ccccc1,inconclusive: -42.2%
9,COc1ccc2cc(CN(CC3CCCO3)S(=O)(=O)c3ccc(C(C)=O)cc3)c(=O)[nH]c2c1 (centres undefined),inactive: -26.1%
10,COc1ccc(CSc2nnnn2-c2ccc(C(=O)O)cc2)cc1,inconclusive: -47.9%
11,O=C(O)CN1C(=O)CC(c2ccccc2)CC1=O,inactive: -4.96%
12,O=C(CF)NC(NC(=S)Nc1ccccc1O)C(Cl)(Cl)Cl (centres undefined),active: -65.5%
13,C=CCNC(=O)Nc1ccc2nc(C)sc2c1,inconclusive: -40.3%
14,CC(C)[C@@H](NC(=O)OC(C)(C)C)C(=O)NCC1CCC(C(=O)N[C@@H](Cc2ccccc2)C(=O)O)CC1 (some centres undefined),inactive: -17.7%
15,CCC1CCCCN1CCCNC(=O)Cn1nc(-c2ccc(C)cc2)ccc1=O (centres undefined),active: -70.9%
16,Cc1ccc(NC(=O)CS(=O)CC(=O)N(C2CCCC2)C(C)C(=O)NC2CCCCC2)cc1 (centres undefined),inconclusive: -49.5%
17,CCN(CC)c1ncnc2ccc(Br)cc12,inconclusive: -54.1%
18,O=C(NCc1cccs1)c1csc(COCCO)n1,inactive: -3.33%
19,CCCn1c(SCC(=O)N2CCN(C(C)=O)CC2)nc2sc3c(c2c1=O)CCC3,inconclusive: -42.5%
20,Nc1cccc(S(=O)(=O)Nc2ccc(SC(F)F)cc2)c1,inconclusive: -47.6%
21,Cc1ccc(C)c(N2CCN(c3nc4ccc(C(=O)c5ccccc5)cc4n4cnnc34)CC2)c1,inactive: 3.26%
22,CC(=O)Nc1ccc(NC(=O)C(C)Sc2nc3ccccc3c(=O)n2Cc2ccco2)cc1 (centres undefined),inconclusive: -45.6%
23,O=C(Nc1c2c(nc3ccccc13)CCCC2)c1ccccc1Br,inconclusive: -50.2%
24,Cc1ccc2c(c1)C(c1ccccc1)N(C(=O)c1ccccc1[N+](=O)[O-])CC(=O)N2 (centres undefined),inconclusive: -50.7%
25,Cc1ccc(CCNC(=O)CCS(=O)(=O)c2ccc(Br)cc2)cc1,inconclusive: -46%
26,C#CC[N+]1(CC#Cc2cccc(C)c2)CCCCC1,inconclusive: -53%
27,COc1cc(/C=N/NC(=S)NCCN2CCOCC2)cc(OC)c1O,inconclusive: -42.4%

# Of the compounds above, 3 have bromine:
row,Structure (SMILES),"activity change, negative = inhibition"
17,CCN(CC)c1ncnc2ccc(Br)cc12,inconclusive: -54.1%
23,O=C(Nc1c2c(nc3ccccc13)CCCC2)c1ccccc1Br,inconclusive: -50.2%
25,Cc1ccc(CCNC(=O)CCS(=O)(=O)c2ccc(Br)cc2)cc1,inconclusive: -46%
